# Reference: PubChem BioAssay AID504706 (National Center for Advancing Translational Sciences (NCATS), 2011)
# About 200 (0.062%) of roughly 320,000 compounds were called active. Another 6% or so got no clear call; they are omitted. Calls come from the whole dose curve; as a rule, active = well fitted activation curve with a large enough effect; inconclusive = small, poorly fitted or top-dose-only effect; inactive = no such curve, though single readings can be large or run the other way. Only a part is listed here, and it is no random draw. Where no call is shown, the source filed none.
# Assay: qHTS assay for re-activators of p53 using a Luc reporter; note: nearly all actives have a fitted effect of over 45% in size; for activity change, positive = activation: % of control where 0% means no effect
# Details: H1299 p53-A138V BP100-luciferase reporter, luminescence, 24 h; activity change, positive = activation: at 92.2 µM (top of the series)
# How it was run: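 H1299 (p53-null), stable ts p53-A138V + BP100-Luc; 1000 cells/well, Opti-MEM/10% FBS; cpd 4 pt, 1:5; 24 h, 37 deg C, 5% CO2; detection reagent 10 min RT; luminescence.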
# Potency is the fitted concentration of half-maximal effect.
SMILES,Potency,"activity change, positive = activation"
C=CCn1cc(/C=N/Nc2nc3ccccc3[nH]2)c2ccccc21,active: 31.6 µM,–
COc1ccc([C@H]2CC(=O)C=C(/C=C/c3ccccc3)C2)cc1OC,–,inactive: -30.1%
COc1ccc(-c2noc(CCCC(=O)O)n2)cc1,–,inactive: -24.1%
Cc1ccc2nc(-c3ccc(NC(=O)COC(=O)c4ccco4)cc3)sc2c1,–,99.5%
Oc1ccc(Cl)cc1C1=NNC(c2ccc(Cl)cc2)C1 (stereo unspecified),active: 28.2 µM,–
Brc1ccc(-c2csc(-c3c[nH]c4ccccc34)n2)cc1,active: 44.7 µM,–
COc1ccc(/C(C)=N/Nc2ccc(C(=O)O)cc2)cc1OC,–,38.8%
O=C(CCN1C(=O)c2ccccc2C1=O)Nc1ccc(-c2nc3ccccc3s2)cc1,–,54.4%
COC(=O)c1cc(NS(=O)(=O)c2ccc(N3CCC(C)CC3)c([N+](=O)[O-])c2)cc(C(=O)OC)c1,–,34.5%
O=C(Nc1ccc2c(c1)OCCO2)c1c(F)cccc1F,active: 22.4 µM,–
Cc1ccc(/C(N)=N/OC(=O)c2ccc(C)cc2Cl)cc1,–,71.4%
COc1cccc(/C=C2/SC(=S)N(CCCC(=O)Nc3ccc(O)cc3)C2=O)c1,–,inactive: -43%
CC(C)=CC(=O)Nc1nnc(-c2ccccc2)s1,–,37.3%
CS(=O)(=O)c1ccc(Oc2ccc(-c3nnco3)cc2)c([N+](=O)[O-])c1,–,46.8%
COc1ccc(NC(=O)C(NC(=O)Cc2cccs2)c2ccc(C)cc2)cc1 (stereo unspecified),–,57.9%
O=S1(=O)C=C(Sc2nnc(-c3ccccc3)o2)c2ccccc21,–,inactive: -36.1%
COc1ccc(-n2cnc3c(cnn3CCC#N)c2=N)cc1,–,55.3%
Cc1ccc(NC(=O)c2ccccc2NS(=O)(=O)c2ccc(Cl)s2)cc1,–,66%
Cc1cc(SCC(=O)c2ccc(Cl)cc2)nc(=O)[nH]1,–,60.4%
O=C(c1ccccc1)n1c(=S)nc2ccccn21,–,179%
Cc1cccnc1Nc1nc(-c2ccc(F)cc2)cs1,–,49.6%
Cc1cc(N)n2nc(-c3ccc(C(C)(C)C)cc3)cc2n1,active: 11.2 µM,–
CCOc1ccc2oc(C(=O)Nc3nccs3)c(C)c2c1,–,48.4%
Cc1ccc(Cn2ncc(Cl)c(Cl)c2=O)cc1,–,inactive: -32.5%

SMILES,Potency,"activity change, positive = activation"
O=C(Nc1ncc(Cc2ccccc2)s1)c1cccs1,–,55.8%
NC(=O)c1c(NC(=O)c2cc3ccccc3o2)sc2c1CCC2,–,142%
CCOc1cccc(-c2nc3cc(C)ccc3o2)c1,–,71.1%
Nc1c(-c2ccc(Cl)cc2)cnc2c(-c3ccc(F)cc3)cnn12,–,29.6%
CN1/C(=C/C(=O)c2nc(S(C)(=O)=O)ncc2Cl)C(C)(C)c2ccccc21,–,inactive: -54.2%
Clc1ccc(-n2ncc3c(N4CCCC4)ncnc32)cc1,–,185%
COc1ccc(/C=N/NC(=S)Nc2ccccc2[N+](=O)[O-])cc1O,–,68%
O=[N+]([O-])c1ccccc1COc1ccc(Cl)c2cccnc12,–,55.7%
Cc1ccc(/C=C/C(=O)c2ccc(O)cc2)cc1,active: 11.2 µM,–
Cc1ccc(NC(=O)NC2CCCCC2)cc1Cl,–,41.7%
Cc1ccc(C(=O)COC(=O)c2cccs2)cc1,–,38.7%
O=C(COC(=O)c1cc(S(=O)(=O)N2CCc3ccccc3C2)ccc1Cl)NCc1ccco1,–,48.4%
CCOC(=O)c1c(N)sc(C(=O)Nc2ccc3c(c2)OCO3)c1C,–,39.8%
COc1cccc(NC(=O)c2ccc3c(c2)OCCO3)c1,–,30.8%
Fc1ccccc1Nc1nc2ccccc2o1,–,31.6%
O=C(O)COc1ccccc1/C=C1\C(=O)Nc2ccc(Br)cc21,–,26.8%
Cn1c(-c2ccc(Br)o2)nc2ccccc21,–,38.2%
O=C(CCNc1ccccc1)c1cccc([N+](=O)[O-])c1,–,inactive: -32.1%
COc1ccc(/C=C2\SC(=O)N(CCc3nnc(N)s3)C2=O)cc1,–,28.5%
CCCCn1c(SCC(=O)N2CCCC2=O)nc2cc(S(N)(=O)=O)ccc21,–,112%
CC(=O)Oc1ccc(Cl)cc1/C=C/c1ccc2ccccc2n1,–,123%
CCC(=O)Nc1cc2nn(-c3ccccc3)nc2cc1Cl,–,31.4%
Fc1ccccc1/C=C/c1ccc2ccccc2n1,–,25.3%
Clc1ccc(CSc2nc3ccncc3[nH]2)cc1,–,50.6%

SMILES,Potency,"activity change, positive = activation"
CCN(CC)c1ccc(/C=N/N2CCOCC2)cc1,–,24.1%
c1ccc(-c2ccc(-c3nc(-c4ccncc4)no3)cc2)cc1,–,60.9%
C/C(=N\NC(=O)c1csc(C)c1C)c1ccco1,active: 7.94 µM,–
CC(=O)c1sc(NC(=O)c2oc3ccc(F)cc3c2C)nc1C,–,32.3%
O=C(Nc1nc2ccccc2[nH]1)Nc1ccccc1F,active: 11.2 µM,–
CCn1cnc2cc(NCc3nc4ccccc4n3Cc3ccccc3)ccc21,–,56.4%
CCCCCCOC(=O)C[N+](C)(C)CCOC1CC2CCC1(C)C2(C)C (stereo unspecified),–,inactive: -21.7%
CC(=O)Nc1ccc(/C=C/c2nc3ccccc3o2)cc1,–,37.9%
COc1ccc(C2Nc3ccccc3C(=O)N2c2ccc(C)cc2)cc1COc1ccccn1 (stereo unspecified),–,50.4%
Cc1nn(C)cc1/C=C/C(=O)c1cccs1,active: 20 µM,–
COc1ccc(/C=N/Nc2ccccc2C(=O)O)cc1,–,35.3%
Cc1nn(-c2ccccc2)c(Cl)c1/C=C/C(=O)c1ccc(O)cc1,active: 22.4 µM,–
c1ccc(-c2noc(-c3cccc4ccccc34)n2)nc1,–,56%
O=c1c2cc(F)ccc2sn1-c1ccccc1,–,inactive: -37.4%
Cc1cccc(Sc2ccc([N+](=O)[O-])cc2[N+](=O)[O-])n1,–,inactive: -31.2%
COCCN(C(=O)CCl)C(C(=O)NC1CCCCC1)c1ccccc1C (stereo unspecified),–,inactive: -23.7%
COCCSc1ccccc1C(=O)Nc1cc(C)ccn1,–,32.8%
CC[C@@H](C)[C@H](NC(=O)OC(C)(C)C)c1nnc(S(=O)(=O)Cc2cc(C)ccc2C)o1,–,inactive: -27.2%
COc1ccc(-n2sc3ccc(F)cc3c2=O)cc1,–,-37.7%
COc1ccc(OC2CCN(S(=O)(=O)c3cccc(F)c3)CC2)cc1,–,27%
CCOc1ccc(CN2CCCC(CO)(Cc3ccc(F)cc3)C2)cc1 (stereo unspecified),–,inactive: -65.7%
CN1/C(=C/C(=O)c2ccc(Cl)cc2)Sc2cc3c(cc21)OCO3,–,46.6%
O=Cc1cc(Cl)ccc1OCCN1CCC(Cc2ccccc2)CC1,–,inactive: -43.4%
O=C(NOCc1ccccc1)c1ccc([N+](=O)[O-])cc1,–,68.4%

SMILES,Potency,"activity change, positive = activation"
Cc1cccc(NC(=O)CSc2nc3ccccc3o2)c1,–,37.4%
O=C(CSc1ccccc1)Nc1ccc(-c2nc3ccccc3[nH]2)cc1,–,-31.1%
CC(=O)/C=C/n1c(=S)oc2ccccc21,–,inactive: -26.3%
Cc1ccccc1NC(=O)/C=C/c1ccc([N+](=O)[O-])s1,–,inactive: -35.4%
Nc1c(C(=O)Nc2cccc(F)c2)nnn1-c1ccc2c(c1)OCCO2,–,47.8%
O=C(NNC(=O)c1ccc(Cl)cc1Cl)c1ccncc1,–,66.8%
CC(C)Cc1nnc(NC(=O)c2ccc3c(c2)OCCO3)s1,–,49.2%
CCN(CC)c1ccc(/C=C(\C#N)c2ccccn2)cc1,–,32.3%
Cc1cc(NC(=O)c2ccc3c(c2)OCCO3)no1,–,-26.3%
Cc1ccc(NC(=O)N2CCc3ccccc32)cc1,–,100%
O=C(CN1CCN(c2ccc(Cl)cc2)CC1)Nc1ccc(F)cc1,–,inactive: 2.08%
O=C1CSC(c2ccccc2)N1Cc1ccccn1 (stereo unspecified),–,22.7%
CC(=O)Nc1ccc(N=Nc2ccccc2)cc1,–,33.1%
O=C(Nc1ccc(/C=C/c2nc3ccccc3o2)cc1)c1c(F)cccc1F,–,52.9%
Cc1cccc(-c2nnc(-c3ccccc3)o2)c1,active: 11.2 µM,–
Nc1nc2c(-c3ccc(Br)cc3)nnn2c2ccccc12,–,37.9%
COC(=O)c1ccc(Sc2nnnn2-c2ccccc2)c([N+](=O)[O-])c1,–,inactive: -38.9%
COc1cc(OC)c(C(=O)Nc2ccc(C(=O)c3ccccc3)cc2)cc1OC,–,inactive: -45.1%
O=C(CSc1nc(-c2ccccc2)cs1)Nc1cccc([N+](=O)[O-])c1,active: 35.5 µM,–
Cc1ccnc(NC(=S)NC(=O)c2cccs2)c1,–,129%
O=C(COc1ccccc1Cl)Nc1ccc(Cl)cn1,–,44.8%
COc1cc(C(=O)OC(C)CN2CCCC2)cc(OC)c1OC (stereo unspecified),–,33.4%
Cc1ccccc1CSc1ccc(-c2ccc3c(c2)OCO3)nn1,–,58%
O=C(N/N=C1\CCc2ccccc21)c1ccccc1O,–,166%

# Ordered by molar mass (ascending): some entries from above
SMILES,Potency,"activity change, positive = activation"
CC(=O)/C=C/n1c(=S)oc2ccccc21,–,inactive: -26.3%
CCN(CC)c1ccc(/C=C(\C#N)c2ccccn2)cc1,–,32.3%
Cc1ccccc1NC(=O)/C=C/c1ccc([N+](=O)[O-])s1,–,inactive: -35.4%
Cc1cccc(NC(=O)CSc2nc3ccccc3o2)c1,–,37.4%
Nc1nc2c(-c3ccc(Br)cc3)nnn2c2ccccc12,–,37.9%

# (cont.)

SMILES,Potency,"activity change, positive = activation"
COCCn1c(C)cc(C(=O)CSc2nc3ccccc3c(=O)[nH]2)c1C,–,31%
COC(=O)CNc1c(-c2ccccn2)nc2ccc(Br)cn12,–,36.7%
O=C(COc1ccccc1F)Nc1ccc2c(c1)OCCO2,–,29.4%
COc1ccc(C(=O)O/N=C(\N)c2ccccc2)c(OC)c1,–,50.8%
O=C1C=C(c2ccc3ncccc3c2)C[C@@H](c2ccc(F)cc2)C1,–,inactive: -40%
O=C(/C=C/c1ccccc1)NCCC1=CCCCC1,–,84.7%
O=C(/C=C/c1ccccc1Cl)Nc1cccnc1,–,41.4%
COc1ccc(-c2ccc(-c3nnn(CC(=O)N4CCOCC4)n3)cc2)cc1,–,41.7%
Cc1ccccc1-c1nc2cc(NC(=O)C3CC3)ccc2o1,–,37%
Cc1cccn2cc(-c3ccc(F)cc3)nc12,–,72.6%
Cc1ccc(OCC(=O)c2cc(C)n(C3CC3)c2C)c([N+](=O)[O-])n1,–,234%
Cc1ccc(C(=O)NC(=S)Nc2cccnc2Cl)cc1,–,55.5%
Cc1ccc(S(=O)(=O)N(C)C)cc1NC(=O)COC(=O)CCC(=O)c1ccc(F)cc1,–,50%
O=C(NCc1cccnc1)/C(=C\c1ccc(-c2ccc(Br)cc2)o1)S(=O)(=O)c1ccccc1,–,inactive: -39.1%
Cc1ccccc1NC(=O)CSc1nc2ccccc2c(=O)n1C,–,inactive: -52.9%
COc1ccccc1C(=O)CSc1nccn1C,–,31.7%
CC(C)Nc1ncnc2c1cnn2-c1ccccc1,–,65.6%
CCc1cc(C(=O)c2ccc(C)cc2)c(NC(=O)CCl)s1,–,-23.2%
C=CC[C@@H](CC(=O)N(CCO)Cc1ccccc1)C(=O)N[C@H](COC(=O)[C@@H](CC=C)CC(=O)OC(C)(C)C)Cc1c[nH]c2ccccc12,–,inactive: 1.74%
Cc1c(Cl)c([N+](=O)[O-])nn1CCCC(=O)Nc1sc2c(c1C(N)=O)CCC(C)C2 (stereo unspecified),–,41.8%
